Laboratory results reported in US8012711B2, “Methods of screening for compounds that reduce microbial resistance to fluoroquinolones” (priority 1999, dated 2011).

System: Escherichia coli K-12 AG100, AG112 and derived fluoroquinolone-resistant mutants (wild-type acrAB)
Details: for Accumulation of CIP into whole energized cells: 10 μM CIP; for CIP accumulation, % of wild-type: vs AG100

`O=C(O)c1cn(C2CC2)c2cc(N3CCNCC3)c(F)cc2c1=O` [CIP, ciprofloxacin] was tested, and the “CIP accumulated by energized cells and increase after deenergization, compared with parental strain” value (first step mutants 1-AG100 and 1′-AG112 vs AG100 and AG112) was “virtually identical”, the “Accumulation of CIP into whole energized cells” value (strain 1′-AG112, energized) was 57 pmol CIP/ODU600 and the “CIP accumulation, % of wild-type” value (strain 1′-AG112, energized) was 55 % of wild-type. For the same molecule, the “Accumulation of CIP into whole energized cells” value (strain 2°-AG100, energized) was 65 pmol CIP/ODU600, the “CIP accumulation, % of wild-type” value (strain 2°-AG100, energized) was 63 % of wild-type and the “Accumulation of CIP into whole energized cells” value (strain 2′-AG112, energized) was 26 pmol CIP/ODU600. For the same molecule, the “CIP accumulation, % of wild-type” value (strain 2′-AG112, energized) was 25 % of wild-type, the “Accumulation of CIP into whole energized cells” value (strain 3*-AG100, energized) was 16 pmol CIP/ODU600 and the “CIP accumulation, % of wild-type” value (strain 3*-AG100, energized) was 16 % of wild-type. The “Accumulation of CIP into whole energized cells” value (strain 3′-AG112, energized) was 26 pmol CIP/ODU600, the “CIP accumulation, % of wild-type” value (strain 3′-AG112, energized) was 25 % of wild-type and the “Accumulation of CIP into whole energized cells” value (strain 4*-AG100, energized) was 20 pmol CIP/ODU600. For the same molecule, the “CIP accumulation, % of wild-type” value (strain 4*-AG100, energized) was 19 % of wild-type, the “Accumulation of [14C-]ciprofloxacin after 200 μM CCCP” value (strain AG100, de-energized with 200 μM CCCP) was 201 pmol CIP/ODU600 and the “Accumulation of CIP into whole energized cells” value (strain AG100, energized) was 103 pmol CIP/ODU600. For the same molecule, the “Accumulation of [14C-]ciprofloxacin after CCCP” value (strain AG112, de-energized with CCCP) was 226 pmol CIP/ODU600, the “Accumulation of CIP into whole energized cells” value (strain AG112, energized) was 56 pmol CIP/ODU600 and the “CIP accumulation, % of wild-type” value (strain AG112, energized) was 54 % of wild-type.

Where two headings read alike, the source gives them in different places.
